From doi:10.1101/2022.06.21.497044 (bioRxiv, 2022)
Results are given in words; binding and its absence hold for the method and conditions named. For some of these results: Binding seen in cells or lysates may run through a third protein. Some entries that bind do so weakly or less than the wild type. Tags and fused reporters may be left off the sequences shown.

Experiments:
[1] = target: T1, ABSCISIC ACID …5 (ABI5), full length, fused to the GAL4 DNA-binding domain (pGBKT7) (Arabidopsis thaliana) (UniProt Q9SJN0); assay: two-hybrid
T1 sequence: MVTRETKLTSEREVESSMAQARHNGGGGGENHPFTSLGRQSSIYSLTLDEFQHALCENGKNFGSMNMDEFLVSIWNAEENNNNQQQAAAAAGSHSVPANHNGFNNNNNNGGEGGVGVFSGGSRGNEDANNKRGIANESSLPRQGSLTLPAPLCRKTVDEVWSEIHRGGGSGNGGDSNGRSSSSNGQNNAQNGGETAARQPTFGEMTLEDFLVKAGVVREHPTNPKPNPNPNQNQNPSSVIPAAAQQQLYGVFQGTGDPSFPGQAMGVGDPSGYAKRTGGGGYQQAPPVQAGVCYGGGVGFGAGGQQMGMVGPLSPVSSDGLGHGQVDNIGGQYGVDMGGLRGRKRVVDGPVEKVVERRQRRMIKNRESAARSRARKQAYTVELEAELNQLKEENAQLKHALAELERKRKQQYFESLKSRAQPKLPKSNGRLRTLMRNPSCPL

[2] = target: T2, ABI5, full length, fused to the N-terminal half of YFP (pCL112) (Arabidopsis thaliana) (UniProt Q9SJN0); assay: split reporter
T2 sequence: T1 sequence

B1: miP1a/BBX31, full length, fused to the GAL4 activation domain (pGADT7) (protein, UniProt Q9LRM4 1-121)
chain: MCRGLNNEESRRSDGGGCRSLCTRPSVPVRCELCDGDASVFCEADSAFLCRKCDRWVHGANFLAWRHVRRVLCTSCQKLTRRCLVGDHDFHVVLPSVTTVGETTVENRSEQDNHEVPFVFL
Which binding [1] does the source give for B1 here?
Its binding is “binds”.

B2: YFPc-BBX31 (protein, UniProt Q9LRM4 1-121)
chain: B1 chain
Which binding [2] does the source give for B2 here?
The binding was “binds”.

B3: miP1b/BBX30, full length, fused to the GAL4 activation domain (pGADT7) (protein, UniProt Q1G3I2 1-117)
chain: MCRGFEKEEERRSDNGGCQRLCTESHKAPVSCELCGENATVYCEADAAFLCRKCDRWVHSANFLARRHLRRVICTTCRKLTRRCLVGDNFNVVLPEIRMIARIEEHSSDHKIPFVFL
Which binding [1] does the source give for B3 here?
Its binding is “binds”.

B4: YFPc-BBX30 (protein, UniProt Q1G3I2 1-117)
chain: B3 chain
How did the binding [2] turn out when B4 was run?
Its binding is “binds”.
